Earlier results in US20230355571A1, “METHOD FOR TREATING VIRAL AND BACTERIAL INFECTION THROUGH INHALATION THERAPY” (priority 2020, published 2023).
Converted amounts (≈) assume the structure as drawn. At least one compound was matched to its structure with a doubt left.

What was measured:
Settings in all cases: cited from earlier work
S. aureus = system: S. aureus
P. aeruginosa = system: P. aeruginosa
K. pneumoniae = system: K. pneumoniae

SMILES: NC[C@H]1O[C@H](O[C@H]2[C@H](O)[C@@H](O[C@H]3O[C@H](CO)[C@@H](O)[C@H](N)[C@H]3O)[C@H](N)C[C@@H]2N)[C@H](O)[C@@H](O)[C@@H]1O [KYN, Kanamycin, reference compound]
- MIC (S. aureus): 8 µM (≈ 3.88 µg/mL)
- MIC (P. aeruginosa): 9 µM (≈ 4.36 µg/mL)
- MIC (K. pneumoniae): 2 µM (≈ 0.969 µg/mL)
